Earlier results as cited in patent US20190008779A1, “GEMCABENE COMPOSITIONS AND METHODS OF USE THEREOF” (GEMPHIRE THERAPEUTICS INC., priority 2017, published 2019).

The chains behind the UniProt entries cited, without tags or fusion partners. Where a name states a change or a piece, a line headed by the entry shows the natural chain unless it says otherwise.
UniProt P08183, whole entry: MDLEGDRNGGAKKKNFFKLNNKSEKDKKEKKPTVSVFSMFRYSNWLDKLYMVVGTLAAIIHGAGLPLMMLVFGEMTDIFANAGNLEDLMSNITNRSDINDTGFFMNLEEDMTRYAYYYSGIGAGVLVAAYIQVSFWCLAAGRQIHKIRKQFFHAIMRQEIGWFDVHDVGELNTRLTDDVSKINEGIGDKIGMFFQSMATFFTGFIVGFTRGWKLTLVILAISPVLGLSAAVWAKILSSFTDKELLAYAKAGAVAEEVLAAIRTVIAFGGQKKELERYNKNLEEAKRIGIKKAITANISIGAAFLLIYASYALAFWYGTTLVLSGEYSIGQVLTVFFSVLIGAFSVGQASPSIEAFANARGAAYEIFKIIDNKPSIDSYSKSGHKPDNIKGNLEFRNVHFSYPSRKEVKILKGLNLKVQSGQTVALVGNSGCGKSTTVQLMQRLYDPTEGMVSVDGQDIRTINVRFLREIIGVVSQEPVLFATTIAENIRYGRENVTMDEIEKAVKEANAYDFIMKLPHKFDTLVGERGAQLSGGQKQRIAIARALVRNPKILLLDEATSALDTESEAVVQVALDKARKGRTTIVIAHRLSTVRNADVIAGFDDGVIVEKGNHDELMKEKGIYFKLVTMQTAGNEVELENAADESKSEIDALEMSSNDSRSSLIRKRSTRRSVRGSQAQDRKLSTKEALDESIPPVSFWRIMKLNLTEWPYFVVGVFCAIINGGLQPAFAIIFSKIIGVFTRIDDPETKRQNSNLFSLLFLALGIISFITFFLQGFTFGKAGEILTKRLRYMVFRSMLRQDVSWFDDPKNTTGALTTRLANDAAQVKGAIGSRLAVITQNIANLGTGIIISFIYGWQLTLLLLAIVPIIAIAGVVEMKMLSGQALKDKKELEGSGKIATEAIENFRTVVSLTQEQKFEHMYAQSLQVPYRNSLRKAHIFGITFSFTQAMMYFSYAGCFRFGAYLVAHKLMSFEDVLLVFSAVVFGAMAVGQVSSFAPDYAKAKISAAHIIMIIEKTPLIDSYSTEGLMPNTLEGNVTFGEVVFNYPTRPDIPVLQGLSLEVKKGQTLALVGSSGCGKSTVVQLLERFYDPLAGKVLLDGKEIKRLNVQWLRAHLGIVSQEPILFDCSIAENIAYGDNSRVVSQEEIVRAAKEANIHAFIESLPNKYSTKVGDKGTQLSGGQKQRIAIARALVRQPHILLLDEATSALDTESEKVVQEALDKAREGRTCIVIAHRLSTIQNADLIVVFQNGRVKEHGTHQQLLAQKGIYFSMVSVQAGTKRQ
UniProt Q9Y6L6: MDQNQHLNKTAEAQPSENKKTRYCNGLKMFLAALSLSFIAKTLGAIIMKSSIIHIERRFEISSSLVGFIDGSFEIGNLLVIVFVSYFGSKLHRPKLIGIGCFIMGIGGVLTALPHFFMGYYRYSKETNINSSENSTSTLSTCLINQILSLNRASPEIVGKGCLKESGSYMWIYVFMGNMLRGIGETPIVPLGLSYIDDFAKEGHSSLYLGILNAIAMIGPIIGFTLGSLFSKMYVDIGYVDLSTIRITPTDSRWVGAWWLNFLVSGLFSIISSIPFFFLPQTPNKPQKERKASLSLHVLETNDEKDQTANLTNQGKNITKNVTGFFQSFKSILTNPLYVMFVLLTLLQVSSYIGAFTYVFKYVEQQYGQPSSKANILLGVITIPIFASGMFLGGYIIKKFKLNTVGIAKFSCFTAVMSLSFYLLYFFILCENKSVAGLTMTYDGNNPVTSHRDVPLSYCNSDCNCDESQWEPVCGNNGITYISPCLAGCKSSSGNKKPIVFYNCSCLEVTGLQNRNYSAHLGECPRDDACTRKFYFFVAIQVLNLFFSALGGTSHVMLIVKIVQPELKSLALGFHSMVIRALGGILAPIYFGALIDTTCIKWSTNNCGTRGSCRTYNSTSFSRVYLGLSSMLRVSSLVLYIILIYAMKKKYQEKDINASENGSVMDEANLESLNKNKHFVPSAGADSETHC

Columns and labels:
P-glycoprotein (P-gp) = P-glycoprotein (P-gp) (Homo sapiens, UniProt P08183); conditions: cited from earlier work
OATP1B1 = OATP1B1 (Homo sapiens, UniProt Q9Y6L6); conditions: cited from earlier work

Compound: CC(C)c1c(C(=O)Nc2ccccc2)c(-c2ccccc2)c(-c2ccc(F)cc2)n1CC[C@@H](O)C[C@@H](O)CC(=O)O [Atorvastatin, atorvastatin]
- substrate of the efflux transporter P-glycoprotein (P-gp) (P-glycoprotein (P-gp)): substrate
- substrate of organic anion transporting polypeptide (OATP1B1) (OATP1B1): substrate
